Measurements published in paper PMC6795447.
These are yes or no findings as the source states them, for the method shown. In cells and extracts the contact can be indirect. Some binding calls cover weakened binding; strength is not graded here.

Protein sequences, listed by entry. Tags and fused reporters are not part of them. Residues count along the entry.
UniProt P28799, residues 18-593: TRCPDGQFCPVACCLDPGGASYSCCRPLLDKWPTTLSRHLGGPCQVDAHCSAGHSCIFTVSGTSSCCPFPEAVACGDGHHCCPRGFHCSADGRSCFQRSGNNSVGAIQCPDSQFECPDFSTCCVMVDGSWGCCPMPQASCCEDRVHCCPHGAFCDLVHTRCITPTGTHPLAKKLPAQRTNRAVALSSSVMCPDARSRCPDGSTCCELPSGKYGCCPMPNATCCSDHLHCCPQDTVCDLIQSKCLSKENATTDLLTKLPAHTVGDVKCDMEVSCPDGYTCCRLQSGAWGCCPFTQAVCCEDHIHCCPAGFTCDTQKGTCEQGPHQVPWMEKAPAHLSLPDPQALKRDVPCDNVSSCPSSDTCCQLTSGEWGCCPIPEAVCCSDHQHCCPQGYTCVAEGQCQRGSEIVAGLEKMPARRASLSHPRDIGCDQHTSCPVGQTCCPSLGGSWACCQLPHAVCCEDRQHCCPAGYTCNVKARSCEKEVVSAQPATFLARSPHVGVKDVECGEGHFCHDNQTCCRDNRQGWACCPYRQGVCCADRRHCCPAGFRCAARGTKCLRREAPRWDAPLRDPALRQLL
UniProt Q9Y6K9: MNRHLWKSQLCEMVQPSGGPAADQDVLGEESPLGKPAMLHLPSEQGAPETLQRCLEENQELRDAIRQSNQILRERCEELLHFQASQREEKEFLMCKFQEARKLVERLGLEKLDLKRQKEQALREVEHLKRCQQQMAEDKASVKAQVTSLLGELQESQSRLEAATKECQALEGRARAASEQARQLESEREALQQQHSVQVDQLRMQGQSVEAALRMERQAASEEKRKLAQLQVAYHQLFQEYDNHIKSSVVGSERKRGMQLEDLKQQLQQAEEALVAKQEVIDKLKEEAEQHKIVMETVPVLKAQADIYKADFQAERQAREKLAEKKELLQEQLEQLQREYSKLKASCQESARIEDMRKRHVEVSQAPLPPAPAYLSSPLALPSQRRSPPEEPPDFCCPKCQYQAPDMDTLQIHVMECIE
UniProt O88522: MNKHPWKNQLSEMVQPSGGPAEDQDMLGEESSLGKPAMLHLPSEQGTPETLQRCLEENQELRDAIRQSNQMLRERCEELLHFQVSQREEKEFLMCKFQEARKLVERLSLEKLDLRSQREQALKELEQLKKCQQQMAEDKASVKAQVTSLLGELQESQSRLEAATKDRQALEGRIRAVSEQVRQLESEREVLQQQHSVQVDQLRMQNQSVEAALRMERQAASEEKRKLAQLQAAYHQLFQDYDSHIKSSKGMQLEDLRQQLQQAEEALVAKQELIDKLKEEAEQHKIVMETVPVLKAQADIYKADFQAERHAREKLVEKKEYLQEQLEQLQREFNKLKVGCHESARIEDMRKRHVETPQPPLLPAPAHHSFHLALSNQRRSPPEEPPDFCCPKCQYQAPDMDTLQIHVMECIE

Legend:
[1] = molecular target: FLAG-tagged full-length PGRN (UniProt P28799); assay: co-IP; HEK293 cells co-transfected with tagged constructs, 24 h; lysed in RIPA buffer; lysates incubated with anti-FLAG or anti-HA antibodies overnight at 4°C, protein A/G agarose beads; western blot
[2] = molecular target: progranulin (PGRN), endogenous in HEK293 cells (human (endogenous in HEK293)) (UniProt P28799); assay: co-IP
[3] = molecular target: NF-κB essential modulator (NEMO), endogenous in HEK293 cells (human (endogenous in HEK293)) (UniProt Q9Y6K9); assay: co-IP
[4] = molecular target: NEMO, endogenous in mouse bone marrow-derived macrophages (mouse (endogenous in BMDMs)) (UniProt O88522); assay: co-IP

For “Myc-tagged full-length NEMO (from UniProt Q9Y6K9 1-419)”, the binding [1] was “binds”.

In the case of “NF-κB essential modulator (NEMO), endogenous in HEK293 cells (from UniProt Q9Y6K9 1-419)”, the binding [2] is reported as “binds”.

“progranulin (PGRN), endogenous in HEK293 cells (from UniProt P28799 18-593)” was tested, and the binding [3] was “binds”.

B1: A20, endogenous in mouse bone marrow-derived macrophages (enzyme, UniProt Q60769 1-775)
chain: MAEQLLPQALYLSNMRKAVKIRERTPEDIFKPTNGIIYHFKTMHRYTLEMFRTCQFCPQFREIIHKALIDRSVQASLESQKKLNWCREVRKLVALKTNGDGNCLMHAACQYMWGVQDTDLVLRKALCSTLKETDTRNFKFRWQLESLKSQEFVETGLCYDTRNWNDEWDNLVKMASADTPAARSGLQYNSLEEIHIFVLSNILRRPIIVISDKMLRSLESGSNFAPLKVGGIYLPLHWPAQECYRYPIVLGYDSQHFVPLVTLKDSGPELRAVPLVNRDRGRFEDLKVHFLTDPENEMKEKLLKEYLIVMEIPVQGWDHGTTHLINAAKLDEANLPKEINLVDDYFELVQHEYKKWQENSDQARRAAHAQNPLEPSTPQLSLMDIKCETPNCPFFMSVNTQPLCHECSERRQKNQSKLPKLNSKLGPEGLPGVGLGSSNWSPEETAGGPHSAPPTAPSLFLFSETTAMKCRSPGCPFTLNVQHNGFCERCHARQINASHTADPGKCQACLQDVTRTFNGICSTCFKRTTAEPSSSLTSSIPASCHQRSKSDPSQLIQSLTPHSCHRTGNVSPSGCLSQAARTPGDRAGTSKCRKAGCMYFGTPENKGFCTLCFIEYRENKQSVTASEKAGSPAPRFQNNVPCLGRECGTLGSTMFEGYCQKCFIEAQNQRFHEARRTEEQLRSSQHRDMPRTTQVASRLKCARASCKNILACRSEELCMECQHLSQRVGSVAHRGEPTPEEPPKQRCRAPACDHFGNAKCNGYCNECYQFKQMYG
For B1, the binding [4] was “binds”.
